# In patent publication US20220323444A1, “Methods of Treating Advanced Prostate Cancer” (The Medical College of Wisconsin, Inc., priority 2019, published 2022):
# For at least one compound, name, drawing or mass did not settle the structure.
# Test system: CWR22Rv1 PC cells
# Assay: Death / viability of CWR22Rv1 PC cells treated with Jak2 inhibitors
# Type: cell-based
# Details: FIG. 7D, 7E
# Experimental: We tested whether Stat5 regulation of AR mRNA and protein levels provides an opportunity to control AR levels pharmacologically by inhibition of Jak2 signaling. […] Finally, to evaluate the effect of PAC and FED on PC cell viability, CWR22Rv1 cells were treated with increasing concentrations of PAC or FED for 3 days.
smiles,measurement,value
N#CC[C@H](C1CCCC1)n1cc(-c2ncnc3[nH]ccc23)cn1 [ruxolitinib],induction of death of PC cells,does not induce death of PC cells
